# The list shows a part of the results, in another mix than the full data. For some of these results: At the low end of the ranking the order means little. The list shows a part of the results. For some of these results: The source does not settle which construct or isoform was used.
# By UniProt entry, the sequences of proteins in these tests, tags left out. Where a name states a change or a piece, a line headed by the entry shows the natural chain unless it says otherwise.
# UniProt P32519: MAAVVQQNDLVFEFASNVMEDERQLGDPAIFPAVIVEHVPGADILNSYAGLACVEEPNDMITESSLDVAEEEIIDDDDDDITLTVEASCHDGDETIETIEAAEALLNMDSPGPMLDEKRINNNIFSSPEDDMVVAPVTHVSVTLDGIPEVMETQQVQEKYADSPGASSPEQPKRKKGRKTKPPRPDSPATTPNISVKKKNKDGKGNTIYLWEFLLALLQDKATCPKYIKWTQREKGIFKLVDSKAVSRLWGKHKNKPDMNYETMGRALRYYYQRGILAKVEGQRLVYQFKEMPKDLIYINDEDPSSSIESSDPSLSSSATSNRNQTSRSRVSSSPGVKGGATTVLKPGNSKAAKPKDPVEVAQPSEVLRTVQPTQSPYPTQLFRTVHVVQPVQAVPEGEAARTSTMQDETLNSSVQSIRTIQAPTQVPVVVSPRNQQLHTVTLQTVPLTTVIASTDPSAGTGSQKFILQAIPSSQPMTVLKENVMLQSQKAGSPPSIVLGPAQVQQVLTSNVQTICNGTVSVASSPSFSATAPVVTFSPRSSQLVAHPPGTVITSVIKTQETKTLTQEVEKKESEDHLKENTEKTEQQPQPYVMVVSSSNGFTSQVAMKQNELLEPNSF
# UniProt P50549: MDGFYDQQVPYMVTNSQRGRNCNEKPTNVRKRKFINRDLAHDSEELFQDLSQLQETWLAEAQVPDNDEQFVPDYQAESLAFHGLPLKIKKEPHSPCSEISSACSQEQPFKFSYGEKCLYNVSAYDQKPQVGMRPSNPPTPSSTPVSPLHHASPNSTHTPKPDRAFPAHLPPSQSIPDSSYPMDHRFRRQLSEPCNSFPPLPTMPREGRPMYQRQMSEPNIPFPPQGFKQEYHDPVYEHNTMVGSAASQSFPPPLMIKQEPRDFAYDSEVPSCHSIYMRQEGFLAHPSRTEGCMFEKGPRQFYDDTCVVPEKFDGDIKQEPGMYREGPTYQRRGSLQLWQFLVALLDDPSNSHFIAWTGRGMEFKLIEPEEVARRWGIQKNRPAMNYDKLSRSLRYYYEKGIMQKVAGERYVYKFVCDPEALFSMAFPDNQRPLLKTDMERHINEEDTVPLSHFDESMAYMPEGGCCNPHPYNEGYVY
# Experiments:
# Test in all cases: DAPPL (digital affinity profiling via proximity ligation, sequencing)
# Settings in all cases: 10 mM Tris-HCl pH 7.5, 50 mM NaCl, 1 mM DTT, 4% glycerol, room temperature, 30 min; GST-TFs on glutathione beads, 16-mer random dsDNA library, 0.1% …; high values mean tight binding; double strand, one strand shown; scale: fold enrichment (6-mer frequency, TF over GST control)
# ERG = target: T1, ERG (UniProt P11308)
# T1 sequence: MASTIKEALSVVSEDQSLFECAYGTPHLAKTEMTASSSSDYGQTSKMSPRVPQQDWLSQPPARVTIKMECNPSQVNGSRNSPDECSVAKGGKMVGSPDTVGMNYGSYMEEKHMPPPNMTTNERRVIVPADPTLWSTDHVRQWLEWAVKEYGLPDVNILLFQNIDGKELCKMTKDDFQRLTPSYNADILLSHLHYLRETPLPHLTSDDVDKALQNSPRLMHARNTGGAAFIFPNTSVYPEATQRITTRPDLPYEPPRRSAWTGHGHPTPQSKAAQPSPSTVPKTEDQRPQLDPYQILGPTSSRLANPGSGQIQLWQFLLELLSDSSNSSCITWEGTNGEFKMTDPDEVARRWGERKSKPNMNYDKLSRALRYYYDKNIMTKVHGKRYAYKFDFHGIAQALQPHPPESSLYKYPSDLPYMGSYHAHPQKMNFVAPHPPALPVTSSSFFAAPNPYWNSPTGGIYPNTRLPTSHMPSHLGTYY
# ELF1 = ELF1 (UniProt P32519)
# ELK4 = target: T2, ELK4 (UniProt P28324-2)
# T2 sequence: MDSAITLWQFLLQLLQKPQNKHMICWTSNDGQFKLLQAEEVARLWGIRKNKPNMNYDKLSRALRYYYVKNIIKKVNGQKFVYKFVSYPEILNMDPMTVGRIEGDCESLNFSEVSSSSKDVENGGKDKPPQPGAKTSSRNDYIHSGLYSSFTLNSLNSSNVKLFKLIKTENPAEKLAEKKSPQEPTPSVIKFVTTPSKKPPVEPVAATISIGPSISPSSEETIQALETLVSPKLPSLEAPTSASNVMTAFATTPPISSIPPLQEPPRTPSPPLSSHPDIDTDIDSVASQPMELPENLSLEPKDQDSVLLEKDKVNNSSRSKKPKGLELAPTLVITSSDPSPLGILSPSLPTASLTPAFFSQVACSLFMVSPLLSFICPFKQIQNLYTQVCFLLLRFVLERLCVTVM
# ETV4 = target: T3, ETV4 (UniProt P43268)
# T3 sequence: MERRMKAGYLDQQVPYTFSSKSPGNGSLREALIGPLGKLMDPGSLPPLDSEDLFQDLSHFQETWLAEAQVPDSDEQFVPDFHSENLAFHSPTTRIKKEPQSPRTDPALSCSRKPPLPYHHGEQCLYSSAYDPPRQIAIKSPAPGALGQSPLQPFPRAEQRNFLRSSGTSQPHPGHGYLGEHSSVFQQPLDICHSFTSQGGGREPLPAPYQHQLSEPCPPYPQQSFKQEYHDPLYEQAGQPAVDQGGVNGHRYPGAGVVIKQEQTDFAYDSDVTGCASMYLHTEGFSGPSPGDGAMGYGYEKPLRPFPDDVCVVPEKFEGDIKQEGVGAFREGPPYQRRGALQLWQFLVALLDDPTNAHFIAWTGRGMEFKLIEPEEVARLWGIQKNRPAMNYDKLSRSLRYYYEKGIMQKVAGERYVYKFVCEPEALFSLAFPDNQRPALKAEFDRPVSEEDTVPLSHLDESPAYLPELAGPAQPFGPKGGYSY
# ETV1 = ETV1 (UniProt P50549)
# ERF = target: T4, ERF (UniProt P50548)
# T4 sequence: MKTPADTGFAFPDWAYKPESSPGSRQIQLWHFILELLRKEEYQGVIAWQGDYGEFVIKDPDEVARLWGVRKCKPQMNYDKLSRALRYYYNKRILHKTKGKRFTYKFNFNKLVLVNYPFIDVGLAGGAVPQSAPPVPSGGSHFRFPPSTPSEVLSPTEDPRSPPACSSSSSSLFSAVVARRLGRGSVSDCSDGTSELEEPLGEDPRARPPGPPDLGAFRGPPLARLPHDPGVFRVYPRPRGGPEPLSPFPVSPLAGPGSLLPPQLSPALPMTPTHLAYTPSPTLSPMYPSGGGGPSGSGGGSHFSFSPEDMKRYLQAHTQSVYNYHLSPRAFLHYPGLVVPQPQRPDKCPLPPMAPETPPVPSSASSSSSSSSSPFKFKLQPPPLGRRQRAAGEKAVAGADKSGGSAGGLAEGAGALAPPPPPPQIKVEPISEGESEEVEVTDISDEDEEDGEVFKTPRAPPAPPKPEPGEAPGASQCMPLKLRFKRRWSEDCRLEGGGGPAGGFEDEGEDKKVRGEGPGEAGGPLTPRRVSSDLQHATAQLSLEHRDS
sequence,measurement,setting,value
CAGAAC,binding signal,ERG,0.889
same,binding signal,ELF1,0.938
same,binding signal,ELK4,0.814
same,binding signal,ETV4,0.805
same,binding signal,ETV1,0.877
same,binding signal,ERF,0.93
GGCAAT,binding signal,ERG,0.908
same,binding signal,ELF1,0.95
same,binding signal,ELK4,0.887
same,binding signal,ETV4,0.898
same,binding signal,ETV1,0.894
TGACGG,binding signal,ERG,0.884
same,binding signal,ELF1,0.937
same,binding signal,ELK4,0.916
same,binding signal,ETV4,0.908
same,binding signal,ETV1,0.937
same,binding signal,ERF,0.985
CGACAG,binding signal,ERG,0.974
same,binding signal,ELF1,0.991
same,binding signal,ELK4,1.03
same,binding signal,ETV4,1.01
same,binding signal,ETV1,0.945
CAATGG,binding signal,ERG,0.971
same,binding signal,ELF1,1.03
same,binding signal,ELK4,0.987
same,binding signal,ETV4,1.07
same,binding signal,ETV1,1.1
CCAAAG,binding signal,ERG,0.887
same,binding signal,ELF1,0.975
same,binding signal,ELK4,0.955
same,binding signal,ETV4,0.974
same,binding signal,ETV1,0.888
same,binding signal,ERF,0.844
TGAAGA,binding signal,ERG,0.962
same,binding signal,ELF1,0.998
same,binding signal,ELK4,1.02
same,binding signal,ETV4,0.99
same,binding signal,ETV1,0.94
ATCAAG,binding signal,ERG,0.932
same,binding signal,ELF1,0.937
same,binding signal,ELK4,0.997
same,binding signal,ETV4,0.932
same,binding signal,ETV1,0.984
same,binding signal,ERF,0.878
TAGGAT,binding signal,ERG,1.07
same,binding signal,ELF1,0.934
same,binding signal,ELK4,0.947
same,binding signal,ETV4,0.982
same,binding signal,ETV1,0.913
CCGCGC,binding signal,ERG,1.2
same,binding signal,ELF1,1.18
same,binding signal,ELK4,1.35
same,binding signal,ETV4,1.15
same,binding signal,ETV1,1.06
TCGAAA,binding signal,ERG,0.957
same,binding signal,ELF1,0.937
same,binding signal,ELK4,0.987
same,binding signal,ETV4,0.942
same,binding signal,ETV1,0.992
GTCTAG,binding signal,ERG,0.817
same,binding signal,ELF1,0.807
same,binding signal,ELK4,0.859
same,binding signal,ETV4,0.806
same,binding signal,ETV1,0.85
same,binding signal,ERF,0.818
TTGGCG,binding signal,ERG,0.907
same,binding signal,ELF1,0.972
same,binding signal,ELK4,0.857
same,binding signal,ETV4,1.04
same,binding signal,ETV1,0.995
TTAGCA,binding signal,ERG,1.3
same,binding signal,ELK4,1.33
same,binding signal,ETV4,1.23
same,binding signal,ERF,1.29
TATGAG,binding signal,ERG,0.958
same,binding signal,ELF1,0.937
same,binding signal,ELK4,0.96
same,binding signal,ETV4,0.983
same,binding signal,ETV1,0.946

# Copied from the entries so far for reference:
sequence,measurement,setting,value
CCAAAG,binding signal,ERF,0.844
TGAAGA,binding signal,ERG,0.962
same,binding signal,ELF1,0.998
same,binding signal,ELK4,1.02
same,binding signal,ETV4,0.99
same,binding signal,ETV1,0.94
ATCAAG,binding signal,ERG,0.932
same,binding signal,ELF1,0.937
same,binding signal,ELK4,0.997
same,binding signal,ETV4,0.932
same,binding signal,ETV1,0.984
same,binding signal,ERF,0.878
TAGGAT,binding signal,ERG,1.07
same,binding signal,ELF1,0.934
same,binding signal,ELK4,0.947
same,binding signal,ETV4,0.982
same,binding signal,ETV1,0.913

# Reference: paper PMC7862700
